Measurements: US20100222280A1
Results are given in words; binding and its absence hold for the method and conditions named. Binding can be weak; no strength is given. Values belong to the binder of their own block, whether it stands above or below them.

Molecular target: biotinylated TGF-β1 (Homo sapiens (Human))
Experiment: phage display biopanning, peptide on M13 pIII

- binding: binds
B1: peptide identified by SEQ ID NO: 12 (peptide)
peptide: WHKYFLRRPLSVGLG

- binding: binds
B4: peptide identified by SEQ ID NO: 20 (peptide)
peptide: RRFHFHSRMVAVDNS

- binding: binds
B5: peptide identified by SEQ ID NO: 19 (peptide)
peptide: RHLSHFKWLRSHGLD

- binding: binds
B7: peptide identified by SEQ ID NO: 15 (peptide)
peptide: GWITFHRRHHDRVLS

- binding: binds
B8: peptide identified by SEQ ID NO: 16 (peptide)
peptide: RLHGHRSHRFTHVAQ

- binding: binds
B11: peptide identified by SEQ ID NO: 18 (peptide)
peptide: MPLSRYWWLFSHRPR

- binding: binds
B17: peptide identified by SEQ ID NO: 21 (peptide)
peptide: HVRLHHYLRHRSLPN

- binding: binds
B18: peptide identified by SEQ ID NO: 14 (peptide)
peptide: SGRRHLHRHHIFSLP

- binding: binds
B19: peptide identified by SEQ ID NO: 22 (peptide)
peptide: VPMALNHGVYVMVSS

- binding: binds
B22: peptide identified by SEQ ID NO: 13 (peptide)
peptide: RKWFLQHRRMPVSVL

More lines, now with the values behind:

B2: peptide identified by SEQ ID NO: 10 (peptide)
peptide: FVWVRFHRLPRQIYT
- binding: binds

B3: peptide identified by SEQ ID NO: 4 (peptide)
peptide: RLAHSHRHRSHVALT
- binding: binds

B6: peptide identified by SEQ ID NO: 2 (peptide)
peptide: DRRIFWWSNRSAPGA
- binding: binds

B9: peptide identified by SEQ ID NO: 1 (peptide)
peptide: DRRIFWWSLRSAPGA
- binding: binds

B10: peptide identified by SEQ ID NO: 8 (peptide)
peptide: WHWRHRIPLQLAAGR
- binding: binds

B12: peptide identified by SEQ ID NO: 7 (peptide)
peptide: HRISHFAHRYLARLH
- binding: binds

B13: peptide identified by SEQ ID NO: 5 (peptide)
peptide: RRWVRYPVHLHSPIV
- binding: binds

B14: peptide identified by SEQ ID NO: 11 (peptide)
peptide: WHKYFLRRPLSVRTR
- binding: binds

B15: peptide identified by SEQ ID NO: 3 (peptide)
peptide: RFFTRFPWHYHASRL
- binding: binds

B16: TGF-β1 inhibitor peptide P17 (SEQ ID NO: 17) (peptide)
peptide: KRIWFIPRSSWYERA
- binding: binds

B20: peptide identified by SEQ ID NO: 6 (peptide)
peptide: PPYHRFWRGHRHAVQ
- binding: binds

B21: peptide identified by SEQ ID NO: 9 (peptide)
peptide: GWHSLLHSRYHRLAA
- binding: binds
